In publication PMC9950432:
These are yes or no findings as the source states them, for the method shown. Binding seen in cells or lysates may run through a third protein. Some entries that bind do so weakly or less than the wild type.

Protein sequences, listed by entry. Tags and fused reporters are not part of them. Residues count along the entry.
UniProt Q9EP73, residues 19-290: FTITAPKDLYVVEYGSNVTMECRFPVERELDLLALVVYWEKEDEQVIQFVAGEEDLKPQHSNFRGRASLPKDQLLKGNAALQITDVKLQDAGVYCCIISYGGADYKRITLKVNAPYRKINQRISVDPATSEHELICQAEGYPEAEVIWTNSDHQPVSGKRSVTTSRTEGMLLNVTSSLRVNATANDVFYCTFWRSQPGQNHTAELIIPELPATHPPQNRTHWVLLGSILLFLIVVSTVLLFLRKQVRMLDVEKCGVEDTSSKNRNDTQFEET
UniProt Q9NZQ7, residues 19-290: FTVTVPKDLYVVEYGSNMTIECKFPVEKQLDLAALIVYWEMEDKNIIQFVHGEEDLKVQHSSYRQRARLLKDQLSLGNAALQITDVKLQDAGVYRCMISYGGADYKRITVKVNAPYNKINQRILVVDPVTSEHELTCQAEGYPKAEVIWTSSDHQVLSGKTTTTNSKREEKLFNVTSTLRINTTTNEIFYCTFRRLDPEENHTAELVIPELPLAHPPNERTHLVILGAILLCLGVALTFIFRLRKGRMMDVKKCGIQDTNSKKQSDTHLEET

B1: ubiquitin-specific protease 8 (USP8), endogenous, mouse KPC cells (enzyme, UniProt Q80U87 1-1080)
chain: MPAVASVPKELYLSSSLKDLNKKTEVKPEKTSTKNYIHSAQKIFKTAEECRLDRDEERAYVLYMKYVAVYNLIKKRPDFKQQQDYYLSILGPANIKKAIEEAERLSESLKLRYEEAEVRKQLEEKDRREEEQLQQQKRQEMGREDSGAAAKRSVENLLDSKTKTQRINGEKSEGAAAAERGAITAKELYTMMMDKNTSLIIMDARKIQDYQHSCILDSLSVPEEAISPGVTASWIEANLSDDSKDTWKKRGSVDYVVLLDWFSSAKDLLLGTTLRSLKDALFKWESKTVLRHEPLVLEGGYENWLLCYPQFTTNAKVTPPPRSRAEEVSVSLDFTYPSLEEPVPSKLPTQMPPPPIETNEKALLVTDQDEKLRLSTQPALAGPGAAPRAEASPIIQPAPATKSVPQVDRTKKPSVKLPEDHRIKSENTDQSGRVLSDRSTKPVFPSPTTMLTDEEKARIHQETALLMEKNKQEKELWDKQQKEQKEKLRREEQERKAGKTQDADERDSTENQHKAKDGQEKKDSKQTKTEDRELSADGAQEATGTQRQSKSEHEASDAKVPVEGKRCPTSEAQKRPADVSPASVSGELNAGKAQREPLTRARSEEMGRIVPGLPLGWAKFLDPITGTFRYYHSPTNTVHMYPPEMAPSSAPPSTPPTHKVKPQVPAERDREPSKLKRSYSSPDITQALQEEEKRRPAVTPMVNRENKPPCYPKAEISRLSASQIRNLNPVFGGSGPALTGLRNLGNTCYMNSILQCLCNAPHLADYFNRNCYQDDINRSNLLGHKGEVAEEFGIIMKALWTGQYRYISPKDFKVTIGKINDQFAGSSQQDSQELLLFLMDGLHEDLNKADNRKRHKEENNEHLDDLQAAEHAWQKHKQLNESIIVALFQGQFKSTVQCLTCRRRSRTFEAFMYLSLPLASTSKCTLQDCLRLFSKEEKLTDNNRFYCSHCRARRDSLKKIEIWKLPPVLLVHLKRFSYDGRWKQKLQTSVDFPLENLDLSQYVIGPKNSLKKYNLFSVSNHYGGLDGGHYTAYCKNAARQRWFKFDDHEVSDISVSSVRSSAAYILFYTSLGPRITDVAT
B2: ubiquitin-specific protease 8 (USP8), endogenous, human pancreatic cancer cells (enzyme, UniProt P40818 1-1118)
chain: MPAVASVPKELYLSSSLKDLNKKTEVKPEKISTKSYVHSALKIFKTAEECRLDRDEERAYVLYMKYVTVYNLIKKRPDFKQQQDYFHSILGPGNIKKAVEEAERLSESLKLRYEEAEVRKKLEEKDRQEEAQRLQQKRQETGREDGGTLAKGSLENVLDSKDKTQKSNGEKNEKCETKEKGAITAKELYTMMTDKNISLIIMDARRMQDYQDSCILHSLSVPEEAISPGVTASWIEAHLPDDSKDTWKKRGNVEYVVLLDWFSSAKDLQIGTTLRSLKDALFKWESKTVLRNEPLVLEGGYENWLLCYPQYTTNAKVTPPPRRQNEEVSISLDFTYPSLEESIPSKPAAQTPPASIEVDENIELISGQNERMGPLNISTPVEPVAASKSDVSPIIQPVPSIKNVPQIDRTKKPAVKLPEEHRIKSESTNHEQQSPQSGKVIPDRSTKPVVFSPTLMLTDEEKARIHAETALLMEKNKQEKELRERQQEEQKEKLRKEEQEQKAKKKQEAEENEITEKQQKAKEEMEKKESEQAKKEDKETSAKRGKEITGVKRQSKSEHETSDAKKSVEDRGKRCPTPEIQKKSTGDVPHTSVTGDSGSGKPFKIKGQPESGILRTGTFREDTDDTERNKAQREPLTRARSEEMGRIVPGLPSGWAKFLDPITGTFRYYHSPTNTVHMYPPEMAPSSAPPSTPPTHKAKPQIPAERDREPSKLKRSYSSPDITQAIQEEEKRKPTVTPTVNRENKPTCYPKAEISRLSASQIRNLNPVFGGSGPALTGLRNLGNTCYMNSILQCLCNAPHLADYFNRNCYQDDINRSNLLGHKGEVAEEFGIIMKALWTGQYRYISPKDFKITIGKINDQFAGYSQQDSQELLLFLMDGLHEDLNKADNRKRYKEENNDHLDDFKAAEHAWQKHKQLNESIIVALFQGQFKSTVQCLTCHKKSRTFEAFMYLSLPLASTSKCTLQDCLRLFSKEEKLTDNNRFYCSHCRARRDSLKKIEIWKLPPVLLVHLKRFSYDGRWKQKLQTSVDFPLENLDLSQYVIGPKNNLKKYNLFSVSNHYGGLDGGHYTAYCKNAARQRWFKFDDHEVSDISVSSVKSSAAYILFYTSLGPRVTDVAT

Legend:
[1] = target: programmed death-ligand 1 (PD-L1), endogenous, mouse KPC cells (mouse (endogenous in KPC)) (UniProt Q9EP73); test: co-IP; endogenous proteins; cells lysed in IP/Western lysing solution (Beyotime P0013), immunoprecipitation according to the manufacturer's instructions, then western blotting with the indicated antibodies
[2] = target: programmed death-ligand 1 (PD-L1), endogenous, human pancreatic cancer cells (human (endogenous in BxPC-3 and SW1990)) (UniProt Q9NZQ7); test: as above

Binder | binding [1] | binding [2]
B1 | binds | 
B2 |  | binds
